# PubChem BioAssay AID720505 | Drosophila RNAi Screening Center, 2013
# Aim: 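Genes needed for store-operated calcium entry in fly cells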 (primary screen)
# Cells: Drosophila S2R+ cells
# Reagents: long dsRNA against Drosophila genes
# Treatment: thapsigargin (2 µM) in calcium-free buffer to empty internal stores, then 2 mM calcium added back
# Read-out: 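Fluo-4 signal in 384-well plates read on a FLIPR after thapsigargin (2 µM, calcium-free) store depletion and 2 mM calcium add-back; unnormalised mean endpoint per well; screen run twice, selected wells retested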
# Direction: calcium signal and retest calcium signal: higher = more calcium entry after store depletion
# Rule for the call: 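Knock-downs counted as hits when calcium entry dropped relative to STIM1 positive and Rho1 negative controls present on each plate; roughly 1500 genes called, with reductions of differing size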
# Calls: active = called as lowering calcium entry; inactive = not called
# The screen tested about 20,000 reagents; this is an unselected part of those that have a named target and a result. Over the whole deposit, about 2,100 (10%) were called active. 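Raw plate signals without normalisation; calls rest on control-based scores that were not deposited; replicate 2 separates called from uncalled poorly.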 Unmarked entries are inactive. A plus sign joins genes that one reagent is predicted to hit. Not stated in the record: the amount of reagent, the time to read-out.
gene,DRSC id,"calcium signal, replicate 1","calcium signal, replicate 2","retest calcium signal, replicate 1","retest calcium signal, replicate 2"
GAPsec,DRSC10564,190,153,,
Cyp6a16Psi (retired record),DRSC03307,147,93,,
CG5773,DRSC06955,119,138,,
RpL27A,DRSC00781,76.4,108,,
Scp1,DRSC20799,84.6,9017,,
Scp1,DRSC20803,121,10576,,
Scp1,DRSC20806,179,90.5,,
Nsun5,DRSC15835,146,280,,
Atg6,DRSC15798,128,293,,
eIF4G2,DRSC14207,239,340,,
eIF4G2,DRSC21739,147,89.8,,
Drsl3,DRSC22630,106,186,,
CG1850,DRSC06762,130,164,,
CG7304,DRSC10804,80.7,154,,
Pdzd8,DRSC19355,128,79.7,,
CG31233,DRSC15888,164,149,,
CG11286,DRSC14293,134,200,,
CG42724,DRSC12567,126,170,,
CG42724,DRSC22275,88.8,188,,
CG11076,DRSC17197,81.5,136,,
CG8043,DRSC16368,154,173,,
BaraC,DRSC03885,60.5 (active),4691,,
norpA,DRSC18806,121,159,,
Sp7,DRSC15461,135,148,,
Scgalpha,DRSC03076,177,121,,
CG32262,DRSC08165,80,129,,
CG13640,DRSC14639,108,90.1,,
CG15406,DRSC00420,143,96.5,,
gas,DRSC04521,89.3,119,,
Polr3H,DRSC10817,101,88.8,,
clu,DRSC07181,115,82.9,,
Spn53F,DRSC06022,102,195,,
CG42245 + MEP-1,DRSC08274,46.9 (active),115,,
CG42245 + MEP-1,DRSC21460,131,87.2,,
CG8388,DRSC07157,126,135,,
BBS4,DRSC06352,117,139,,
dpr1,DRSC05906,142,91.4,,
dpr1,DRSC06399,75.3,92.7,,
dlg1,DRSC19767,78.5,98.3,,
dlg1,DRSC20324,133,78.7,,
CG12857,DRSC06197,109,153,,
CG30393,DRSC04253,96.5,93.9,,
CG13891,DRSC08361,82.4,103,,
CG31627,DRSC22143,93.3,162,,
CG6294 + CG6299 + CG15642,DRSC19981,72.5 (active),121,,
CG14797 + CG32809,DRSC18562,119,140,,
CG1999,DRSC18199,141,146,,
CG10098,DRSC12509,119,136,,
Obp99a,DRSC15303,74.3 (active),115,,
scu,DRSC20369,108,152,,
ftz,DRSC12626,88.1,129,,
eag,DRSC19067,68.9,106,,
eag,DRSC20328,75.8,131,,
l(2)37Bb,DRSC02088,159,119,143,113
mav,DRSC17149,102,167,,
CG17928,DRSC02644,74 (active),156,,
CG42534,DRSC14722,230,170,,
CG42534,DRSC14759,143,142,,
CG42534,DRSC16072,149,130,,
CG42534,DRSC23131,110,188,,
CG6656,DRSC16085,107,183,,
CG31793,DRSC02605,128,115,,
tex,DRSC16517,89,132,,
PolD2,DRSC08147,160,97.7,,
cu,DRSC15643,86.4,108,,
cu,DRSC15648,104,90.8,,
CG34171,DRSC01637,76.3,211,,
Ca-alpha1D,DRSC03284,118,88,,
Atg17,DRSC12221,88,157,,
Unc-115b + p24-2 + Unc-115a,DRSC16502,64.7 (active),87.9,,
Ste:CG33238 + Ste:CG33241 + Ste:CG33236 + 11 more,DRSC19004,120,102,,
Ste:CG33238 + Ste:CG33241 + Ste:CG33236 + 11 more,DRSC21260,218,84,,
Pepck2,DRSC06013,123,130,,
ImpE2,DRSC08665,96.4,87.3,,
Nup37,DRSC14419,252,146,,
CG14572,DRSC11733,97.4,229,,
Rala,DRSC18703,125,93.1,,
Acp98AB,DRSC21837,60.6 (active),99.9,,
Ythdf,DRSC16036,184,214,,
Ythdf,DRSC16037,122 (active),98,,
Mlc1,DRSC16740,106,99.1,,
ng3,DRSC18804,117,123,,
IFT52,DRSC03271,102,120,,
